Experimental data reported in the supplement of paper PMC7125110.
± gives the standard error. The uncertainty is large for many entries.

B1: glmS ribozyme (parent)
chain: AUAAAAGCGCCAGAACUACAGAAAUGUAGUUGACGAGGAGGAGGUUUAUCGAAUUUUCGGCGGAUGCCUCCAAA

Variants of: B1
Experiment: self-cleavage kobs at 40 uM GlcN6P; higher = faster cleavage; RNA array
Settings: with glucosamine-6-phosphate
Outline: (§1)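 Sequenced MiSeq chips were the platform: E. coli RNA polymerase transcribed barcoded ribozyme variants on them in situ, and a hybridised Cy3 probe tracked these at 37 °C. After glucosamine-6-phosphate (40 μM to 10 mM) in HEPES/KCl/Mg(OAc)2 buffer was flowed in, tiles were imaged over ~14 h. Signals normalised to baseline and to non-cleaving reference variants were reduced to per-tile medians and fit to one- or two-exponential decays to obtain kobs. kcat and KM were derived through weighted Michaelis–Menten fits across concentrations.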

| Variant | self-cleavage kobs at 40 uM GlcN6P [s⁻¹] |
| --- | --- |
| AUAAAAGCGCCAGAGCUACAGAAAUGUAGUUGACGAGGAGGAGGUGUAUCGAAUUUUCGGCGGAUGGCUCCAAA [A15G U46G C67G] | 3.43e-05 ± 2.6e-05 |
| AUAAAAGCGCCAGAACUACAGAAAUGUAGUCGACGAGGAGGAGGUUUAUCGGAUUUUCGGCGGAUGCCUCCAAA [U31C A52G] | 1.81e-05 ± 1.5e-05 |
| AUAAAAGCGCCAGAAUUACAGAAAUGUAGUUGACGAGGGUGAGGUUUAUCGAAUUUUCGGCGGAUGCCUCCAAA [C16U A39G G40U] | 2.16e-05 ± 1.4e-05 |
| AUAAAAGCGCCAGAACUACAGAAAUGUAGUUGACGAGGGUGAGGUUUAUCGAAUUAUCGGCGGAUGCCUCCAAA [A39G G40U U56A] | 5.15e-05 ± 2.8e-05 |
| AUAAAAGCGCCAGAACUACAGAAAUGUAUUUGACGAGGAGGAGGUUUAUCGAAUUUUUGGCGGAUGCACCCAAA [G29U C58U C68A U69C] | 3.95e-05 ± 3e-05 |
| AUAAAAGCGCCAGAACUACAGAAAUGUAGUAGACGAGGAGGAGGUUUAUCGAAUUUUCGGCGGAUGCUUCCAAA [U31A C68U] | 1.7e-05 ± 9.3e-06 |
| AUAAAAGCGCCAGAACUACAGAAAUGUAGUUAACGAGGAGGAGGUUUAUCGAAUUAUCGGCGGAUGGCUCCAAA [G32A U56A C67G] | 2.61e-05 ± 2.5e-05 |
| AUAAAAGCGCCAGAACUACAGAAAUGUAGUUGAUGAGGAGGAGGUUUAUUGAAUUUUCGGCGGAUGCCUCGAAA [C34U C50U C71G] | 6.86e-05 ± 4.3e-05 |
| AUAAAAGCGCCAGAACUACAGAAAUUAGUUGACGAAGGAGGAGGUUUAUCGAAUUUUCGGCGGAUGCCUCCAAA [G26U U27A A28G G29U U31G G32A A33C C34G G35A] | 3.04e-05 ± 2.3e-05 |
| AUAAAAGCGCCAGAAUUACAGAAAUGUAGUUGACAAGGAGGAGGUUUAUCGAAUUUUCGGCGGAUGCGUCCAAA [C16U G35A C68G] | 5.29e-05 ± 2.8e-05 |
| AUAAAAGCGCCAGAACUACAGAAAUGUAGUCGACGAGGAGGAGUUUUAUCGAAUUUUCGGCGGAUGGCUCCAAA [U31C G44U C67G] | 2.34e-05 ± 1.9e-05 |
| AUAAAAGCGCCAAAACUACAGAAAUGUAGUUGACGUGGAGGAGGUUUAUCGAAUUUUCGGCGGAUGCCUACAAA [G13A A36U C70A] | 3.98e-05 ± 3.1e-05 |
| AUAAAAGCGCCAGAACUACAGAAAUGUAUUUGACGAGUAGGAGGUUUAUCGAAUUUUCGGCGGAUGCCGCCAAA [G29U G38U U69G] | 3.09e-05 ± 1.6e-05 |
| AUAAAAGCGCCAGAACUACAGAAAUGUAGUUGACGAGGACGAGGUUUAUCGAAUAUUCGGCGGAUGCCUCCAAA [G40C U55A] | 4.25e-05 ± 2.4e-05 |
| AUAAAAGCGCCAGAUCUACAGAAAUGUAGUGGACGAGGAGGAGGUUAAUCGAAUUUUCGGCGGAUGCCUCCAAA [A15U U31G U47A] | 2.17e-05 ± 2e-05 |
| AUAAAAGCGCCAGAACUACAGAAAUGUACUUGACGAGGAGGAGGUUUAUCGAAUUUUCGGCGGAUACCUCCAAA [G29C G66A] | 3.28e-05 ± 1.7e-05 |
| AUAAAAGCGCCAGAACUACAGAAAUGUAGUUGACUAGGAGGAGGUUUAUCGAAUUUUCGGCGGAGGGCUCCAAA [G35U U65G C67G] | 3.69e-05 ± 2.7e-05 |
| AUAAAAGCGCCAGAACUACAGAAAUUUAGUUGACGAGGAGGAGGUUUAUCGAAUUUUCGGCGGAUGCCUGCAAA [G26U C70G] | 1.62e-05 ± 1.5e-05 |
| AUAAAAGCGCCAGAACUACAGAAAUGUAGUUAACGAGGAGGAGGUUUAUGGAAUUUUCGGCGGAUGCCUCCAAA [G32A C50G] | 4.05e-05 ± 2.1e-05 |
| AUAAAAGCGCCAGAUCUACAGAAAUGUAGUUGACCAGUAGGAGGUUGAUCGAAUUUUCGGCGGAUGCCGCCAAA [A15U G35C G38U U47G U69G] | 5.59e-05 ± 3.1e-05 |
| AUAAAAGCGCCAGGACUACAGAAAUGUAGUGGACGAGGAGGAGGUUUAUCGAAUUUUCGGCGGAUGUCUCCAAA [A14G U31G C67U] | 2.16e-05 ± 1.4e-05 |
| AUAAAAGCGCCAGAACUACAGAAAUGUAGCUGACGAGGAGGAGGUUUAUCGAAUUUUCGGCGGAUGCCUACAAA [U30C C70A] | 3.57e-05 ± 2.1e-05 |
| AUAAAAGCGCCAGAACUACAGAAAUGUAGUCGACGAGGAUGAGGUUUAUCGAAUUUUCGGCGGAUGCCUCCAAA [U31C G40U] | 1.5e-05 ± 1.5e-05 |
| AUAAAAGCGCCAGAACUACAGAAAUGUAGUGGACGAGGAGGAGGUUUAUCGAAUUUUCGGCGGAAGCCUCCAAA [U31G U65A] | 2.26e-05 ± 1.5e-05 |
| AUAAAAGCGCCAGGACUACAGAAAUGUAUUUGACGAGGAGGAGGUUGAUCGAAUUUUCGGCGGAUGCCUGCAAA [A14G G29U U47G C70G] | 3.26e-05 ± 2.4e-05 |
| AUAAAAGCGCCAAAACUACAGAAAUGUAGUUGACGAGGAGGAGGUUUAUGGAAUUCUCGGCGGAUGCCUCCAAA [G13A C50G U56C] | 3.09e-05 ± 2.3e-05 |
| AUAAAAGCGCCAGUACUACAGAAAUGUAGUUGACGAGGAGGAGGUUUAUCGAUUUUUCGGCGGAUGCUUCCAAA [A14U A53U C68U] | 2.88e-05 ± 1.9e-05 |
| AUAAAAGCGCCAGAAGUACAGAAAUGUAGUUGACGAGGAGGAGGUUGAUCGAAUUUUCGGCGGAUGCCUCCAAA [C16G U47G] | 2.16e-05 ± 1.4e-05 |
| AUAAAAGCGCCAGAGCUACAGAAAUGUAGUUGACGAGGAGGAGGUUUAUGGAAUUUUCGGCGGACGCCUCCAAA [A15G C50G U65C] | 2.61e-05 ± 2.3e-05 |
| AUAAAAGCGCCAGAACUACAGAAAUGUAGGUGACGAGGAGGAGGUUUAUCGAAAUUUCGGCGGAUGGCUCCAAA [U30G U54A C67G] | 3.35e-05 ± 2.7e-05 |

A second format for part of the listing above:
AUAAAAGCGCCAGAACUACAGAAAUGUAGUUGACGAGGACGAGGUUUAUCGAAUAUUCGGCGGAUGCCUCCAAA [G40C U55A]
  self-cleavage kobs at 40 uM GlcN6P [s⁻¹] = 4.25e-05 ± 2.4e-05
AUAAAAGCGCCAGAACUACAGAAAUUUAGUUGACGAGGAGGAGGUUUAUCGAAUUUUCGGCGGAUGCCUGCAAA [G26U C70G]
  self-cleavage kobs at 40 uM GlcN6P [s⁻¹] = 1.62e-05 ± 1.5e-05
AUAAAAGCGCCAGAGCUACAGAAAUGUAGUUGACGAGGAGGAGGUUUAUGGAAUUUUCGGCGGACGCCUCCAAA [A15G C50G U65C]
  self-cleavage kobs at 40 uM GlcN6P [s⁻¹] = 2.61e-05 ± 2.3e-05

Variants of: B1
Experiment: self-cleavage kobs at 160 uM GlcN6P; higher = faster cleavage; RNA array
Settings: with glucosamine-6-phosphate
Outline: as §1

| Variant | self-cleavage kobs at 160 uM GlcN6P [s⁻¹] |
| --- | --- |
| AUAAAAGCGCCAGAUCUACAGAAAUGUAGUGGACGAGGAGGAGGUUAAUCGAAUUUUCGGCGGAUGCCUCCAAA [A15U U31G U47A] | 1.6e-05 ± 1.3e-05 |
| AUAAAAGCGCCAGGACUACAGAAAUGUAUUUGACGAGGAGGAGGUUGAUCGAAUUUUCGGCGGAUGCCUGCAAA [A14G G29U U47G C70G] | 5.77e-05 ± 3.1e-05 |

Variants of: B1
Experiment: self-cleavage kobs at 10000 uM GlcN6P; higher = faster cleavage; RNA array
Settings: with glucosamine-6-phosphate
Outline: as §1

| Variant | self-cleavage kobs at 10000 uM GlcN6P [s⁻¹] |
| --- | --- |
| AUAAAAGCGCCAGAACUACAGAAAUGUAGUUGACUAGGAGGAGGUUUAUCGAAUUUUCGGCGGAGGGCUCCAAA [G35U U65G C67G] | 4.28e-05 ± 2.2e-05 |
| AUAAAAGCGCCAGAGCUACAGAAAUGUAGUUGACGAGGAGGAGGUUUAUGGAAUUUUCGGCGGACGCCUCCAAA [A15G C50G U65C] | 2.78e-05 ± 1.8e-05 |
| AUAAAAGCGCCAGAACUACAGAAAUGUAGGUGACGAGGAGGAGGUUUAUCGAAAUUUCGGCGGAUGGCUCCAAA [U30G U54A C67G] | 0.000618 ± 0.00032 |

Variants of: B1
Experiment: self-cleavage kobs at 2500 uM GlcN6P; higher = faster cleavage; RNA array
Settings: with glucosamine-6-phosphate
Outline: as §1

| Variant | self-cleavage kobs at 2500 uM GlcN6P [s⁻¹] |
| --- | --- |
| AUAAAAGCGCCAGAACUACAGAAAUGUAGUUAACGAGGAGGAGGUUUAUGGAAUUUUCGGCGGAUGCCUCCAAA [G32A C50G] | 2.99e-05 ± 2.6e-05 |
